This data set in a line: Therapeutic duration of action of an immediate release dose (from product labeling).

SMILES strings stand for the structures.

For `COc1ccc2cc([C@H](C)C(=O)O)ccc2c1` [Naproxen, naproxen], the “ATDAIRD (average therapeutic duration of action of an effective immediate release dose)” value turned out to be 10 h.

For the molecule `CC(C(=O)O)c1cccc(C(=O)c2ccccc2)c1` (centres unmarked) [ketoprofen], the “ATDAIRD (average therapeutic duration of action of an effective immediate release dose)” value stood at 5 h.

For the origin of these results see patent publication US8211465B2, “Immediate release and sustained release ibuprofen dosing regimen” (McNeil-PPC, Inc., priority 2007, dated 2012).
